Measurements from patent publication US7060292B2, “Lipid structures and uses thereof” (GESynthesis, Inc., priority 2001, dated 2006).

Assay: β-estradiol entry into and extraction from bilayer of NBD-C6-HPC vesicles
Type: physicochemical

Compound	change in fluorescence on addition (1 μl of 40 mM in DMSO)	change in fluorescence on addition of β-CD after β-estradiol (5 μl of 10 mM β-CD in water, extraction from the vesicles)	change in fluorescence intensity on addition alone (without β-estradiol)
C[C@]12CC[C@@H]3c4ccc(O)cc4CC[C@H]3[C@@H]1CC[C@@H]2O [β-estradiol]	Fluorescence decreased	increase in fluorescence	
OC[C@H]1O[C@@H]2O[C@H]3[C@H](O)[C@@H](O)[C@@H](O[C@H]4[C@H](O)[C@@H](O)[C@@H](O[C@H]5[C@H](O)[C@@H](O)[C@@H](O[C@H]6[C@H](O)[C@@H](O)[C@@H](O[C@H]7[C@H](O)[C@@H](O)[C@@H](O[C@H]8[C@H](O)[C@@H](O)[C@@H](O[C@H]1[C@H](O)[C@H]2O)O[C@@H]8CO)O[C@@H]7CO)O[C@@H]6CO)O[C@@H]5CO)O[C@@H]4CO)O[C@@H]3CO [β-CD, β-cyclodextrin]			did not alter the fluorescence intensity
